Earlier results, collected in patent US10927398B2, “Compositions for CYP450 phenotyping using saliva samples” (Concordia University, Inc., priority 2015, dated 2021).
Read-outs that look alike come from different tables or passages of the source. At least one structure is not confirmed: it was looked up by name or label, or the drawing left a doubt.

Tested on: CYP450 enzymes
Conditions: CYP isoforms listed, Table of Exemplary Drugs, cited from earlier work

Cc1c(OCC(F)(F)F)ccnc1C[S+]([O-])c1nc2ccccc2[nH]1 (stereo not shown) [Llansoprazole]
METABOLISM (CYP2C19): 1A2

C=C(C)[C@H]1CC=C(C)CC1 [Limonene]
METABOLISM (CYP2C9): 2C9, 2C19

COc1ccccc1OCC(O)CN1CCN(CC(=O)Nc2c(C)cccc2C)CC1 (stereo not shown) [Ranulazine (Ranexa), Ranulazine]
METABOLISM (CYP3A4): 3A, 2D6

CCCCCc1cc(O)c2c(c1)OC(C)(C)[C@@H]1CCC(C)=C[C@@H]21 [THC]
METABOLISM (CYP2C9): 2C9, 2C19, 3A4
